The data set can be described thus: general procedure: Fmoc solid-phase peptide synthesis; Rink amide resin (0.26 mmol/g); HCTU/DIEA. Particulars: for conjugation yield: conjugation step.

Ub4_ix_S7C (WLYLDDCGDWWICG; cyclic): where the note is “late stage modification step”, the step yield came out at 42%.

“(Ub4_ix_S7C)2CH2 (WLYLDDCGDWWICG; cyclised or stapled)” returned a conjugation yield of 18%. “(Ub4_ix_S7C)2 (WLYLDDCGDWWICG; cyclised or stapled)”: the conjugation yield was found to be 23%.

The values are drawn from US20230340027A1 (TECHNION RESEARCH & DEVELOPMENT FOUNDATION LIMITED, priority 2020, published 2023).
